Source: article PMC5521747
Results are given in words; binding and its absence hold for the method and conditions named. In cells and extracts the contact can be indirect. Some results given as binding are weak or reduced against the parent protein; the word gives no strength.

Protein sequences, listed by entry. Tags and fused reporters are not part of them.
UniProt Q9VEN1: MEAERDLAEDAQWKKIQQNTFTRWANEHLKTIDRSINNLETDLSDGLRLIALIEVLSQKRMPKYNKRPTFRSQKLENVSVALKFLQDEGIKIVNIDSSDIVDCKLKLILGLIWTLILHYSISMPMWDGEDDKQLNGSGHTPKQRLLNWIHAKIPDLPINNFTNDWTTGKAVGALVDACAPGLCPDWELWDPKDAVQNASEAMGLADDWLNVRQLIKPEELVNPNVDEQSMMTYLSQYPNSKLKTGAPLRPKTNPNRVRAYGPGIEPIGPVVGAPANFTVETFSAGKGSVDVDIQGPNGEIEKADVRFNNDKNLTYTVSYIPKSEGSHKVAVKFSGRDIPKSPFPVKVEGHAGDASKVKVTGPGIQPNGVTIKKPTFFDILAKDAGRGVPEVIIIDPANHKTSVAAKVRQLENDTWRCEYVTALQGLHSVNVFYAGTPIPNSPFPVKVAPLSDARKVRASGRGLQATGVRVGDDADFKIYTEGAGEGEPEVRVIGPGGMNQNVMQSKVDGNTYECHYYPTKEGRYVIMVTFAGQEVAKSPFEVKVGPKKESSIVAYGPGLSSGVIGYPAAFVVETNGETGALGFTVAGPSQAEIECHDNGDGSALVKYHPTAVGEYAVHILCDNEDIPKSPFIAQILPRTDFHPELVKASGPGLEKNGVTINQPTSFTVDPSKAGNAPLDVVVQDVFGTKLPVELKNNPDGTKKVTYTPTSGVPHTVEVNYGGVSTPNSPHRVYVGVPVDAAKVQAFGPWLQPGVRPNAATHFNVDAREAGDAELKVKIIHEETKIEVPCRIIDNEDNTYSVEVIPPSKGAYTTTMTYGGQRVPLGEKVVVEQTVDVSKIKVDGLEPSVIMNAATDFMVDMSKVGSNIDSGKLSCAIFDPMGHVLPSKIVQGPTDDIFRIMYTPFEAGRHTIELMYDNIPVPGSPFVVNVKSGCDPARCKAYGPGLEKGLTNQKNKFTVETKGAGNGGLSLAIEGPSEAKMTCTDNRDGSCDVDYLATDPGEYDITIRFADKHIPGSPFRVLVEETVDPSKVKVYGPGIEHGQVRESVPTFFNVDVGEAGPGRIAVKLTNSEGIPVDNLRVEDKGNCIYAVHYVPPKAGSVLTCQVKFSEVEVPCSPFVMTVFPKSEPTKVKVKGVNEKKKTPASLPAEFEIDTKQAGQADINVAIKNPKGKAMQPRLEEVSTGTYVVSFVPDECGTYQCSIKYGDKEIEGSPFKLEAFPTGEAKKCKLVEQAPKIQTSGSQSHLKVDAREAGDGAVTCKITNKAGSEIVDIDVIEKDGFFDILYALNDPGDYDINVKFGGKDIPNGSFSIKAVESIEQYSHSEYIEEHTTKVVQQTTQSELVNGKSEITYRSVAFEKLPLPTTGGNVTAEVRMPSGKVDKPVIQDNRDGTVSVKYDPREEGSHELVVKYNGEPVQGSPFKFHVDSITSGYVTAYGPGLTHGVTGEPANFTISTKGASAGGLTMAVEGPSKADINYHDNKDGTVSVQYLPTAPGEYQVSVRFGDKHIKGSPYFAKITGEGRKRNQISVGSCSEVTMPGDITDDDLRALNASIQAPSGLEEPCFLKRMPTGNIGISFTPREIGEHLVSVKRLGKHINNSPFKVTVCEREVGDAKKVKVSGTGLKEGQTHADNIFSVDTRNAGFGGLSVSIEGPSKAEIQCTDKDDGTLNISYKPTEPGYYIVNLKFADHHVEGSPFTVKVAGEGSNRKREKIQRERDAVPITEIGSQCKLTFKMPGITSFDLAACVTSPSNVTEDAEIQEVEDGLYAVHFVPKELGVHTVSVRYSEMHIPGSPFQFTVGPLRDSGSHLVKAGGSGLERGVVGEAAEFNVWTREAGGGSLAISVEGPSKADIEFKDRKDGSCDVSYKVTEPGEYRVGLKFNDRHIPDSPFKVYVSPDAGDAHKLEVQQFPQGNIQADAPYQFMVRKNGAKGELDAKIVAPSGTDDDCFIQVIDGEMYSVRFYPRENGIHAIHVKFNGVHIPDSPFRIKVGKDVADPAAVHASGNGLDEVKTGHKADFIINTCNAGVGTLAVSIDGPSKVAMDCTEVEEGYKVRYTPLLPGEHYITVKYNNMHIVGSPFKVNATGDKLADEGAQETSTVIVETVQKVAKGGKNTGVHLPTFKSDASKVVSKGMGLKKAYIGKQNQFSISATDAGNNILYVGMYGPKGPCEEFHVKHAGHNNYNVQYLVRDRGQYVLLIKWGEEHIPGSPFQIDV

Biological target: Sallimus (Sls), His/EGFP-tagged protein trap sls^ZCL2144 (Drosophila (endogenous in adult fly thoraces)) (UniProt Q9I7U4)
Assay: pull-down; extract of 50 adult thoraces (cher^CPTI1399 with sls^ZCL2144); His-tagged Sls held on Ni NTA agarose beads, 3 hours at 4°C; wash 20 mM Tris-HCl pH 8, 150 mM NaCl, 5% glycerol, 0.2% Triton X-100; Cher detected by anti-Flag blot; control: wild type thorax extract

binding: binds
Substance: Cheerio (Cher, filamin), Venus-Flag protein trap cher^CPTI1399 (from UniProt Q9VEN1 1-2210)
